In ChEMBL document CHEMBL2375244 (J Med Chem, 2013):

What was measured:
Assay type in all cases: functional, cell-based
SK-ES1 = test: Cytotoxicity against human SK-ES-1 cells after 72 hrs by resazurin/resorufin-based fluorescence assay; conditions: SK-ES1, 72 h
How it was run: (§1)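 CellTiter-Blue viability: 1200 cells per well seeded, incubated overnight at 37 °C, 5% CO₂; drugs serially diluted 2:3 in medium, four replicate wells per concentration plus four diluent-only control wells; 72 h exposure; resazurin reduction to resorufin read by fluorescence (579 nm ex/584 nm em). IC50 is the average of three data sets, each using nine concentrations between 0.004 μM and 12.5 μM.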

A673 = test: Cytotoxicity against human A673 cells after 72 hrs by resazurin/resorufin-based fluorescence assay; conditions: A673, 72 h
[1] = Cytotoxicity against human NCI-H929 cells after 72 hrs by resazurin/resorufin-based fluorescence assay; conditions: NCI-H929, 72 h; how it was run: as §1

Measured: IC50

CCc1cnn2c(NCc3ccc[n+]([O-])c3)cc(N3CCCC[C@H]3CCO)nc12 [DINACICLIB]
< 5 nM: SK-ES1 | A673 | [1]
